Source: the supplement of paper PMC12823440, “Inhibitors supercharge kinase turnover through native proteolytic circuits” (Nature, 2025)
Counter-ions that a name gives are not always drawn. The list shows a part of the results. Hit calls seldom repeat between salt and free forms of one compound.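 In K562 cells expressing nanoluciferase-fused kinases, luminescence was recorded at 4 h intervals between 2 and 18 h, normalized as percent of control with DMSO at 100% and a positive control at 0%. A significant (2 sigma) signal drop marks a time point as decreased. The authors' rule for a hit is not shown and takes in more than the number of time points.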

Protein sequences, listed by entry. Tags and fused reporters are not part of them. Lines headed by an entry give the natural chain unless they say otherwise; changes in a name come on top.
UniProt P29317, whole entry: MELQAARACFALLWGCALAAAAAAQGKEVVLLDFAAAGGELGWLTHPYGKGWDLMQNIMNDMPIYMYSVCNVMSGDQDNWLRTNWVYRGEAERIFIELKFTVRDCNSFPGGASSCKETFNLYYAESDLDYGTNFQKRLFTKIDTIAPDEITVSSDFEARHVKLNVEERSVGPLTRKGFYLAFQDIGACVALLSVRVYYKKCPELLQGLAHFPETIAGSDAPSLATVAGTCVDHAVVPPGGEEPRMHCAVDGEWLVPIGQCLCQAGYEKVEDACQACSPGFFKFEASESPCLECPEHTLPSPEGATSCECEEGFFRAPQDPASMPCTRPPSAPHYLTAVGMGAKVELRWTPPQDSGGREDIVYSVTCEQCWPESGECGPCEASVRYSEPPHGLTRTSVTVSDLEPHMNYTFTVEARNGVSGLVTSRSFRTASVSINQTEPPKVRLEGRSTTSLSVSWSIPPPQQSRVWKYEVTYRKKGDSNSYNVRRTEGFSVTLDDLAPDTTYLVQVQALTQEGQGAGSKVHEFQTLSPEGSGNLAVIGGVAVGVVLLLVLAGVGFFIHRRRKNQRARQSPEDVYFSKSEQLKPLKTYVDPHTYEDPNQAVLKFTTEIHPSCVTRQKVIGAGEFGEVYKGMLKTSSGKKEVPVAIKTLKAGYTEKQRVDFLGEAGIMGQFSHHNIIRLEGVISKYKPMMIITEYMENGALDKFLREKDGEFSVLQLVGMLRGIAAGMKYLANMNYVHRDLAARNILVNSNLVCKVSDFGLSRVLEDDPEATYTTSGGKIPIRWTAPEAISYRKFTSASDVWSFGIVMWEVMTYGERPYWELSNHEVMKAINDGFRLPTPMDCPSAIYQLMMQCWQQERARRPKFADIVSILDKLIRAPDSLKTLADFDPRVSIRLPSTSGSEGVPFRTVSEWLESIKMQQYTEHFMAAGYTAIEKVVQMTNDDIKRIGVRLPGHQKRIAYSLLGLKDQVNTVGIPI
UniProt P21860, whole entry: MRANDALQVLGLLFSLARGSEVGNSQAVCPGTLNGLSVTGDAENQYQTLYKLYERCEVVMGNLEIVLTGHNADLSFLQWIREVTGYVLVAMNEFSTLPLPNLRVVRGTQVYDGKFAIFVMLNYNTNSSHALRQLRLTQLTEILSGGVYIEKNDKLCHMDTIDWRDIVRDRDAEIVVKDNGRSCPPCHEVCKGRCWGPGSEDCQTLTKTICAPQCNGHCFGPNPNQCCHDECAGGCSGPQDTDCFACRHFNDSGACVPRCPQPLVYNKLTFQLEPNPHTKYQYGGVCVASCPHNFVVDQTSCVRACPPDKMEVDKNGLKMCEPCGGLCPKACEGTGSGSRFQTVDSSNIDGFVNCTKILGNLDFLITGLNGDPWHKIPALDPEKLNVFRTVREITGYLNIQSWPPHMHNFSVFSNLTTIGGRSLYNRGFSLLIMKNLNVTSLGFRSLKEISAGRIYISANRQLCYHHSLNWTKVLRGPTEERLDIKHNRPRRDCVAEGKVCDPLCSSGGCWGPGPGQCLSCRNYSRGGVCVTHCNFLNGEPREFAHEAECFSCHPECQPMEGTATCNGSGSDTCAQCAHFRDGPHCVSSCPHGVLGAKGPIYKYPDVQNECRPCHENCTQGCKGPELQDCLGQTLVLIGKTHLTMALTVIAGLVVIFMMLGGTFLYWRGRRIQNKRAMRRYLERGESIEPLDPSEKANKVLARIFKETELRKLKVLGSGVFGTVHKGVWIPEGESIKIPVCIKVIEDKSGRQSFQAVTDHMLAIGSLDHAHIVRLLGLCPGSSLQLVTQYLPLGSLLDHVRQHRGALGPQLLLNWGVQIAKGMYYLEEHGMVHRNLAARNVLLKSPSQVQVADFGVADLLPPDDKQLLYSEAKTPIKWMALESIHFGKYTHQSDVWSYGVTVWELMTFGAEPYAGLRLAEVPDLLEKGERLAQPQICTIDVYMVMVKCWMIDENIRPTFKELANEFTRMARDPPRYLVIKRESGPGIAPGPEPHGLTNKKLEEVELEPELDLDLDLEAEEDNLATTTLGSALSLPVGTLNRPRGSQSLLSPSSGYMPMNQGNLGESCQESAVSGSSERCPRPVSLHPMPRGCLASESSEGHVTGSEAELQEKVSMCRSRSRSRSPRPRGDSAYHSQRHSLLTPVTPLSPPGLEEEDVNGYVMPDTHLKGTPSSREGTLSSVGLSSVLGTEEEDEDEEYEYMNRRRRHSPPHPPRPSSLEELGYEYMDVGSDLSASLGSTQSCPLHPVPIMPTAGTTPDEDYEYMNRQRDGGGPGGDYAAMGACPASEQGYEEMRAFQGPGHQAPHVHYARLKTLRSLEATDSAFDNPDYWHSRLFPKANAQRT
UniProt P11362, whole entry, looked up: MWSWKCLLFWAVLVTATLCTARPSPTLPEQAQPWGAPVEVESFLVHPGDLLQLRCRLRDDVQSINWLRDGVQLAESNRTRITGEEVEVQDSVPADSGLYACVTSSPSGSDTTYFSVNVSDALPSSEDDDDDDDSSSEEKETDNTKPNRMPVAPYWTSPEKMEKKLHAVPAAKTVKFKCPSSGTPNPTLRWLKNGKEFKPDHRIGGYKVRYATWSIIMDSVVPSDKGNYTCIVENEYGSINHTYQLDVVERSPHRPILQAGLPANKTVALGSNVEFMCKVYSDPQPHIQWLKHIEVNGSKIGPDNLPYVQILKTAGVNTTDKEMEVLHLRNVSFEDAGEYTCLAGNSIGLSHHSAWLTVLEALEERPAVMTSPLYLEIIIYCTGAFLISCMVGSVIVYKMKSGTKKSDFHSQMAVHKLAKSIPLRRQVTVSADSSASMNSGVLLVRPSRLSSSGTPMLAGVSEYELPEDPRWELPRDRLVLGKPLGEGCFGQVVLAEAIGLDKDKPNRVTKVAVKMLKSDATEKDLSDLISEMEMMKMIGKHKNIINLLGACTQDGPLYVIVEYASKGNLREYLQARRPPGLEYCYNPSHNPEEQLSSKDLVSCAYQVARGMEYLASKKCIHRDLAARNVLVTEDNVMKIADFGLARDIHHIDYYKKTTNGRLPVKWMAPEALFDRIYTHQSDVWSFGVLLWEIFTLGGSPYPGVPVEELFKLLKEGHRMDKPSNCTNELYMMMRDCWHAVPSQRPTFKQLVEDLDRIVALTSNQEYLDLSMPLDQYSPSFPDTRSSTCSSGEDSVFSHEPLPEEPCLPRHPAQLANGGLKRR
UniProt P22607, whole entry, looked up: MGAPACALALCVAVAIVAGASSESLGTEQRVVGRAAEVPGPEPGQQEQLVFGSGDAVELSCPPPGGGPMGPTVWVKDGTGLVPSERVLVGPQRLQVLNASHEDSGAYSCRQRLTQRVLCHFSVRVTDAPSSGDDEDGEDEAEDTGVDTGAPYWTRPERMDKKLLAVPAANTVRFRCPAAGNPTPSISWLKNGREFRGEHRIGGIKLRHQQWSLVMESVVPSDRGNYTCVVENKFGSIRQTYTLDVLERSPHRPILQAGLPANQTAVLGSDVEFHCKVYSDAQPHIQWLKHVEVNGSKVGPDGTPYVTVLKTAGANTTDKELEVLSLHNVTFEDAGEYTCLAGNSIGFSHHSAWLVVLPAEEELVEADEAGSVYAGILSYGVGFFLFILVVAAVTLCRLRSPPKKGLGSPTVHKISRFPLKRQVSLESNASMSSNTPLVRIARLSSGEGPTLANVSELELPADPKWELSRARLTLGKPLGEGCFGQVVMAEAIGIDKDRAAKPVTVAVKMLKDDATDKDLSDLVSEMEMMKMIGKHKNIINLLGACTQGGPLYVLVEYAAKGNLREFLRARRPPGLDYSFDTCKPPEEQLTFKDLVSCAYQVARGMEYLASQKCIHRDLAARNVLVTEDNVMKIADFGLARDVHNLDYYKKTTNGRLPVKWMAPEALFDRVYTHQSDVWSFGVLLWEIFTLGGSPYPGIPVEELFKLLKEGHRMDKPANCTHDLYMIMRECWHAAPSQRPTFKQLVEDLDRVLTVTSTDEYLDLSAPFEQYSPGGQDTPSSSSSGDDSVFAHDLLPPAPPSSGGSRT
UniProt P49840: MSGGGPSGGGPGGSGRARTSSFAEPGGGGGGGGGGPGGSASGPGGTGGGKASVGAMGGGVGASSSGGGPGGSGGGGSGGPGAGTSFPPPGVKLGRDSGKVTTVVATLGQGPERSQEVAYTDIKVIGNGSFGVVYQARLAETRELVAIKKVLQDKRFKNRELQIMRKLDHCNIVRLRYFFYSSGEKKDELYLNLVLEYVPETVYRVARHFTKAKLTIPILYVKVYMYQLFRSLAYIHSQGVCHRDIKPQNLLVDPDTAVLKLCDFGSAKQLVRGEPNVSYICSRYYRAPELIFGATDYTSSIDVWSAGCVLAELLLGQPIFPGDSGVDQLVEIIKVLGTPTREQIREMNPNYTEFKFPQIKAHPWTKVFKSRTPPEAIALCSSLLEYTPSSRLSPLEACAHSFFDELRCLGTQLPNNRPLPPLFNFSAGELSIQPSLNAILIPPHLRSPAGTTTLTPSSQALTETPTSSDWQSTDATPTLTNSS
UniProt P14616: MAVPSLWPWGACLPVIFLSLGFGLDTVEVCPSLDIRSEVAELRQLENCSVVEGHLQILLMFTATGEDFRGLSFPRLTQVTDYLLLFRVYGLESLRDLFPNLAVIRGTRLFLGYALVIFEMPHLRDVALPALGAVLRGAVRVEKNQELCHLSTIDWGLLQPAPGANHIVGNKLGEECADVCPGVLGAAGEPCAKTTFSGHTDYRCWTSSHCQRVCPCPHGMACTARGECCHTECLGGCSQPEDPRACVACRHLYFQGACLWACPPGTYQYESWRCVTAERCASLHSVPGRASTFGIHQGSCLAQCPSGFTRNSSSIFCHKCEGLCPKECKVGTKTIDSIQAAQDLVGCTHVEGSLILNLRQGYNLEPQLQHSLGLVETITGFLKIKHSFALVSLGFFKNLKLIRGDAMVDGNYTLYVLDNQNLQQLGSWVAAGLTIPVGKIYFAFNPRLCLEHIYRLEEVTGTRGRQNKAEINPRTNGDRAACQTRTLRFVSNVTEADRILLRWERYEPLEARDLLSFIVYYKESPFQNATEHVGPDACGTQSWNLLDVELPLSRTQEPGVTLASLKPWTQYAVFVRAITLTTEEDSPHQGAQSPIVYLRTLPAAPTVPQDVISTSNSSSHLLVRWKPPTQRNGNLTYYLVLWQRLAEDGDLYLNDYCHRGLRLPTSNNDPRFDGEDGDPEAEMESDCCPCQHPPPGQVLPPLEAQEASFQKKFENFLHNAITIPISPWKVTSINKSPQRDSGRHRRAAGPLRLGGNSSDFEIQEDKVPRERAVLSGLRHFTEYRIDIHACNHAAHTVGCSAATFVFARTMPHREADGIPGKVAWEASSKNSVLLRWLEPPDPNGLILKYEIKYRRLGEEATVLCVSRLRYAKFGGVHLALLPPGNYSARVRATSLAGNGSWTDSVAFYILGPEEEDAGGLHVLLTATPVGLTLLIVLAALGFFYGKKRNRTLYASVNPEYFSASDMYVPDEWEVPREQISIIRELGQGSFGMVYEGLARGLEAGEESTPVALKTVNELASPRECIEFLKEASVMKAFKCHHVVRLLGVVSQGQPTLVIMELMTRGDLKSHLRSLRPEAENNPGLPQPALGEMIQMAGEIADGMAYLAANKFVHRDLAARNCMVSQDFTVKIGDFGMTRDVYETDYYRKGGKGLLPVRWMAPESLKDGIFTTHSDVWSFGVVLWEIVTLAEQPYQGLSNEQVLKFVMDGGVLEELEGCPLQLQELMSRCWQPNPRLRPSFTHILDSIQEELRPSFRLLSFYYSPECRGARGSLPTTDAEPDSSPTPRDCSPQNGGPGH
UniProt P06239: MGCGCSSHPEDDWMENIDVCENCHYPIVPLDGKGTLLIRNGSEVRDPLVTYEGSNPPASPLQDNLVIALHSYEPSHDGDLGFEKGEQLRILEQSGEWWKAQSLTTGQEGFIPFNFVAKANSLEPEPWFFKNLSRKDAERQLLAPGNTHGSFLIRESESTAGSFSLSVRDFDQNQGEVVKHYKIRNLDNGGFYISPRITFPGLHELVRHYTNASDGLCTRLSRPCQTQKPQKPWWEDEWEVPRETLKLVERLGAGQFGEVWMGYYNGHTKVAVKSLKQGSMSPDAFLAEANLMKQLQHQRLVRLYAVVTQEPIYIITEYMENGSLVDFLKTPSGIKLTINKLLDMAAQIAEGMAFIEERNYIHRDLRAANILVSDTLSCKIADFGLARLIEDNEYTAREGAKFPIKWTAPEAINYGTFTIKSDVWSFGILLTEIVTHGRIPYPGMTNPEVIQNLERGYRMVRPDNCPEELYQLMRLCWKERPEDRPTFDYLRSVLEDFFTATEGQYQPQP

Experiments:
Experiment in all cases: number of time points (of 5) at which kinase-Nluc abundance scored as decreased, DMSO-normalised (count); higher = more persistent destabilization
Conditions in all cases: K562; 2-18 h
EPHA2 = EPHA2 (UniProt P29317)
ERBB3 = ERBB3 (UniProt P21860)
[1] = molecular target: ERBB4_R711C (clone: ERBB4_mut) (UniProt Q15303)
ERN1 = ERN1 (UniProt O75460)
FGFR1 = FGFR1 (UniProt P11362)
FGFR2 = FGFR2 (UniProt P21802)
FGFR3 = FGFR3 (UniProt P22607)
FGR = FGR (UniProt P09769)
FLT3 = FLT3 (UniProt P36888)
FYN = FYN (UniProt P06241)
GSK3A = GSK3A (UniProt P49840)
HER2 = HER2 (UniProt P04626)
INSRR = INSRR (UniProt P14616)
IRAK3 = IRAK3 (UniProt Q9Y616)
LCK = LCK (UniProt P06239)
LIMK1 = LIMK1 (UniProt P53667)
LIMK2 = LIMK2 (UniProt P53671)
EGFR_L861Q = EGFR_L861Q (UniProt P00533)
EGFR_T790M = EGFR_T790M (UniProt P00533)
JAK1 = JAK1 (UniProt P23458)

Structure (SMILES)	number of time points (EPHA2)	number of time points (ERBB3)	number of time points [1]	number of time points (ERN1)	number of time points (FGFR1)	number of time points (FGFR2)	number of time points (FGFR3)	number of time points (FGR)	number of time points (FLT3)	number of time points (FYN)	number of time points (GSK3A)	number of time points (HER2)	number of time points (INSRR)	number of time points (IRAK3)	number of time points (LCK)	number of time points (LIMK1)	number of time points (LIMK2)	number of time points (EGFR_L861Q)	number of time points (EGFR_T790M)	number of time points (JAK1)
C[C@@H]1CCN(C(=O)CC#N)C[C@@H]1N(C)c1ncnc2[nH]ccc12 [Tofacitinib] (10 µM)	0	0	0	0	0	0	0	0	0	0	0	0	0	0	0	0	0	–	–	–
CC#CC(=O)N1CC[C@@H](n2c(=O)n(-c3ccc(Oc4ccccc4)cc3)c3c(N)ncnc32)C1 [Tirabrutinib] (10 µM)	0	0	0	0	0	0	0	0	0	0	0	0	0	0	0	0	0	0	0	0
CC(C)(O)CNc1ncc(-c2ccnc(Nc3ccnc(Cl)c3)n2)c(CC2CC2)n1 (2.5 µM)	0	0	0	0	0	0	0	0	0	0	0	0	0	0	0	0	0	0	0	0
CCc1cc2c(cc1N1CCC(N3CCOCC3)CC1)C(C)(C)c1[nH]c3cc(C#N)ccc3c1C2=O [Alectinib (Hydrochloride)] (2 µM)	0	0	0	0	0	0	0	0	0	3	0	0	0	0	0	3	0	0	0	0
C[C@@H]1CCN(C(=O)CC#N)C[C@@H]1N(C)c1ncnc2[nH]ccc12 [Tofacitinib (citrate)] (10 µM)	0	0	0	0	0	0	0	0	0	0	0	0	0	0	0	0	0	–	–	–
CN(C)CCSSCCNC(=O)C1CCN(C(=O)CSc2ccc(Cl)cc2)CC1 (10 µM)	0	0	0	0	0	0	0	0	0	0	0	0	0	0	0	0	0	0	0	0
Cc1cc(Nc2ncnc3ccc(NC4=NC(C)(C)CO4)cc23)ccc1Oc1ccn2ncnc2c1 [Tucatinib (hemiethanolate)] (2.5 µM)	0	0	0	0	0	0	0	0	0	0	0	0	0	0	0	0	0	0	0	0
Cc1[nH]c(/C=C2\C(=O)Nc3ccccc32)c(C)c1CCC(=O)O [Orantinib] (10 µM)	0	0	0	0	0	0	0	0	0	0	0	0	0	0	0	0	0	–	–	0
CC(=O)NC1CC(n2cnc(NC(=O)Cc3ccc4ccccc4c3)c2)C1 (stereo not given) (10 µM)	0	0	0	0	0	0	0	0	0	0	0	0	0	0	0	0	0	0	0	0
C[C@@]1(c2ncncc2F)NC(=O)c2cc(-c3cn[nH]c3)ccc21 (10 µM)	0	0	0	0	0	0	0	0	0	0	0	0	0	0	0	0	0	0	0	0
COc1cc(Nc2ncc(F)c(Nc3ccc4c(n3)NC(=O)C(C)(C)O4)n2)cc(OC)c1OC [R406 (free base)] (10 µM)	0	0	0	0	0	–	0	0	0	–	0	0	0	0	–	0	0	–	–	0
O=C1NC(=O)/C(=C/c2ccc3nccnc3c2)S1 (10 µM)	0	0	0	0	0	0	0	0	0	0	0	0	0	0	0	0	0	0	0	0
Nc1cc(C(F)(F)F)c(-c2cc(N3CCOCC3)nc(N3CCOCC3)n2)cn1 [Buparlisib (Hydrochloride)] (2.5 µM)	0	0	3	0	0	1	0	0	0	0	0	1	0	0	0	0	0	2	0	3
Cc1[nH]c(/C=C2\C(=O)Nc3ccccc32)c(C)c1CCC(=O)O [(Z)-Orantinib] (10 µM)	0	0	0	0	0	0	0	0	0	0	0	0	0	0	0	0	0	–	–	0
N#CCC1CCN(c2nc(Nc3ccc(N4CCC(O)CC4)cc3)c3c(=O)[nH]ncc3n2)CC1 [Gusacitinib] (10 µM)	0	0	4	0	0	0	0	0	0	1	0	0	0	3	0	1	0	0	0	0
CCCCCCCCCCCCC/C=C/[C@@H](O)[C@@H](N)CO [D-erythro-Sphingosine] (2.5 µM)	0	0	0	0	0	0	0	0	0	0	0	0	0	0	0	0	0	0	0	0
CC#CC(=O)Nc1ccc2ncnc(Nc3cccc(Br)c3)c2c1 (10 µM)	0	0	0	0	0	1	0	0	0	0	0	4	0	0	0	2	0	–	–	0

Structure (SMILES)	number of time points (EPHA2)	number of time points (ERBB3)	number of time points [1]	number of time points (ERN1)	number of time points (FGFR1)	number of time points (FGFR2)	number of time points (FGFR3)	number of time points (FGR)	number of time points (FLT3)	number of time points (FYN)	number of time points (GSK3A)	number of time points (HER2)	number of time points (INSRR)	number of time points (IRAK3)	number of time points (LCK)	number of time points (LIMK1)	number of time points (LIMK2)	number of time points (EGFR_L861Q)	number of time points (EGFR_T790M)	number of time points (JAK1)
NC(=O)c1ccc(-c2nc(-c3ccc4c(c3)OCCO4)c(-c3ccccn3)[nH]2)cc1 (10 µM)	0	0	0	0	0	0	0	0	0	1	0	0	0	0	0	0	0	0	0	0
Cn1cnc(Cn2ccc3ccc(CNCc4[nH]c5ccccc5c4[C@H]4NC(=O)c5ccc(O)cc54)cc32)c1 (10 µM)	0	0	0	0	0	0	0	0	0	0	0	0	0	0	0	0	0	0	0	0
Cn1cnc2c(F)c(Nc3ccc(Br)cc3Cl)c(C(=O)NOCCO)cc21 [Selumetinib] (10 µM)	0	2	0	0	0	1	0	0	0	0	0	0	0	0	0	0	0	0	0	0
O=C1N[C@@H](Cc2c[nH]c3ccccc23)C(=O)N2CCC[C@@H]12 [Brevianamide F] (10 µM)	0	0	0	0	0	0	0	0	0	0	0	0	0	0	0	0	0	0	0	0
Cc1ccccc1-c1c2nccc(-c3ccc(F)cc3F)c2cc[n+]1[O-] (10 µM)	0	0	0	0	0	0	0	0	0	0	0	0	0	0	0	0	0	0	0	0
COc1cc(Nc2ncc(F)c(Nc3ccc4c(n3)NC(=O)C(C)(C)O4)n2)cc(OC)c1OC (10 µM)	0	0	0	0	0	–	0	0	0	–	0	0	0	0	–	0	0	–	–	0
NC(=O)c1nc(Nc2ccccc2)sc1NC(=O)C1CCCCC1 (10 µM)	0	0	0	0	0	0	0	0	0	0	0	0	0	0	0	0	0	0	0	0
Cc1ccc2nc(NCCN)c3ncc(C)n3c2c1 (2.5 µM)	0	0	0	0	0	0	0	0	0	0	0	0	0	0	0	0	0	–	0	0
NC(=O)c1ccc2[nH]ccc2c1 (10 µM)	0	0	0	0	0	0	0	0	0	0	0	0	0	0	0	0	0	0	0	0
FC(F)(c1ccc2ncccc2c1)c1nnc2ccc(-c3ccncc3)nn12 (10 µM)	0	0	0	0	0	0	0	0	0	0	0	0	0	0	0	0	0	0	0	0
COc1cc2c(N3CCN(C(=O)Nc4ccc(OC(C)C)cc4)CC3)ncnc2cc1OCCCN1CCCCC1 [Tandutinib] (10 µM)	0	0	0	0	0	0	0	0	–	0	0	0	0	0	0	0	0	–	–	0
C=CC(=O)Nc1cccc(Nc2nc(Nc3ccc(N4CCN(C(C)=O)CC4)cc3OC)ncc2C(F)(F)F)c1 [Rociletinib] (10 µM)	0	1	4	0	0	0	0	0	0	0	0	4	1	0	0	0	0	0	–	1
COc1cc2c(N3CCN(C(=O)Nc4ccc(OC(C)C)cc4)CC3)ncnc2cc1OCCCN1CCCCC1 [Tandutinib (hydrochloride)] (10 µM)	0	0	0	0	0	0	0	0	–	0	0	0	0	0	0	0	0	–	–	0
O=C(O)CCC(=O)Nc1ccc(Br)cn1 [Bikinin] (10 µM)	0	0	0	0	0	0	0	0	0	0	0	0	0	0	0	0	0	0	0	0
NC(=O)c1nnc(N[C@@H]2CCCC[C@@H]2N)nc1Nc1cccc2cc[nH]c12 (10 µM)	0	0	0	0	0	0	0	0	0	0	0	0	1	0	0	2	0	0	0	0
Cc1cc2ncc(-c3ccc(O)c(O)c3)nc2cc1C [Tyrphostin AG1433] (10 µM)	0	0	0	0	0	0	0	0	0	0	0	0	0	0	0	0	0	0	0	0

Rewritten with bars between the fields: entries from further up.
Structure (SMILES) | number of time points (EPHA2) | number of time points (ERBB3) | number of time points [1] | number of time points (ERN1) | number of time points (FGFR1) | number of time points (FGFR2) | number of time points (FGFR3) | number of time points (FGR) | number of time points (FLT3) | number of time points (FYN) | number of time points (GSK3A) | number of time points (HER2) | number of time points (INSRR) | number of time points (IRAK3) | number of time points (LCK) | number of time points (LIMK1) | number of time points (LIMK2) | number of time points (EGFR_L861Q) | number of time points (EGFR_T790M) | number of time points (JAK1)
Cc1ccc2nc(NCCN)c3ncc(C)n3c2c1 (2.5 µM) | 0 | 0 | 0 | 0 | 0 | 0 | 0 | 0 | 0 | 0 | 0 | 0 | 0 | 0 | 0 | 0 | 0 | – | 0 | 0
NC(=O)c1ccc2[nH]ccc2c1 (10 µM) | 0 | 0 | 0 | 0 | 0 | 0 | 0 | 0 | 0 | 0 | 0 | 0 | 0 | 0 | 0 | 0 | 0 | 0 | 0 | 0
